Laboratory results published in patent US20050148838A1, “Pharmaceutical discovery and development” (priority 2002, published 2005).

experiment: Coulometric EC-MS (voltammetric mass spectrometry), Phase I type EC oxidation; format: physicochemical; conditions: not given
Excerpt: Referring to FIG. 1A, a Model 1100 LC/MSD single quadrupole mass spectrometer 10 (Agilent Technologies, Palo Alto, Calif., USA) was used in combination with a Coulochem® III ECD 12 and Model 5021 coulometric cell 14 (ESA Inc., Chelmsford, Mass., USA).
Compounds are characterized via automated sequences, in which EC potential is changed from, e.g., 0-1200 mV(vs. Pd) in increments of, e.g., 200 mV. EC current and MS ion abundance at specific mass-to-charge ratios (m/z) is monitored. In accordance with the present invention, EC (e.g., coulometric, or amperometric) and reaction product profiles for various drug candidates can be obtained reproducibly. Peak area for parent compounds is inversely proportional to EC response with concomitant formation of reaction products.

Q: With `CCOc1ccc2ccc(=O)oc2c1` [7-Ethoxycoumarin] as the compound, how does the “O-dealkylation by EC oxidation” value read?
A: The value was “not observed”.

same assay, conditions: product ion vs parent after EC oxidation, FIA, 50% aqueous methanol, 0.1 ml/min

Q: With `N[C@@H](CCS)C(=O)O` [Homocysteine] as the compound, how does the “Mass Shift” value read?
A: The value was “+16”.

Q: With `CCCCN1C[C@H](O)[C@@H](O)[C@H](O)[C@H]1CO` [N-butyldeoxynojirimycin] as the compound, how does the “Mass Shift” value read?
A: Its value is “+16”.

Q: For `COc1c(O)ccc2c1CC[C@@H]1[C@@H]2CC[C@]2(C)[C@@H](O)CC[C@@H]12` [4-Methoxyestradiol], which “Mass Shift” value is on record?
A: The value was −16.

Q: For `CN(C)CCCN1c2ccccc2CCc2ccccc21` [Imipramine], which “Mass Shift” value is on record?
A: Its value is −14.

Q: Which “Mass Shift” value does the source give for `C[C@]12CC[C@@H]3c4cc(O)c(O)cc4CC[C@H]3[C@@H]1CC[C@@H]2O` [2-Hydroxyestradiol] here?
A: The value was −2.

Q: With `CSCC[C@H](N)C(=O)O` [Methionine] as the compound, how does the “Mass Shift” value read?
A: Its value is “+16”.

Q: For `COc1cc2c(cc1O)CC[C@@H]1[C@@H]2CC[C@]2(C)[C@@H](O)CC[C@@H]12` [2-Methoxyestradiol], which “Mass Shift” value is on record?
A: Its value is −16.

Q: With `CC(C)NCC(O)COc1cccc2ccccc12` (stereo not shown) [Propranolol] as the compound, how does the “Mass Shift” value read?
A: Its value is −42.

Q: Which “Mass Shift” value does the source give for `C[C@]12CC[C@@H]3c4ccc(O)c(O)c4CC[C@H]3[C@@H]1CC[C@@H]2O` [4-Hydroxyestradiol] here?
A: Its value is −2.
